Reference: publication PMC12141185

Protein sequences, listed by entry. Tags and fused reporters are not part of them.
UniProt Q13283: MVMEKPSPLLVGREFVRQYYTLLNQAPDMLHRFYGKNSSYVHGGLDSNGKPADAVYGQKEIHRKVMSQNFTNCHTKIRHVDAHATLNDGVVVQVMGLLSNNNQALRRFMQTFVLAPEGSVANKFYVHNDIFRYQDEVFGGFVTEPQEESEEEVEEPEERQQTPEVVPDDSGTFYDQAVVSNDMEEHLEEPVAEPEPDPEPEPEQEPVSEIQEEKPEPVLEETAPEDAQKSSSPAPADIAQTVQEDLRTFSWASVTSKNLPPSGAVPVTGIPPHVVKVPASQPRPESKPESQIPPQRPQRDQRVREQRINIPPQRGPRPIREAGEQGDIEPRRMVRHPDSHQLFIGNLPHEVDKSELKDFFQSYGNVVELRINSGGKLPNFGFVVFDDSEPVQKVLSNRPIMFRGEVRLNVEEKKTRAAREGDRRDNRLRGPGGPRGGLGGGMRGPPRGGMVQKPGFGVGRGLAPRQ
UniProt O95365: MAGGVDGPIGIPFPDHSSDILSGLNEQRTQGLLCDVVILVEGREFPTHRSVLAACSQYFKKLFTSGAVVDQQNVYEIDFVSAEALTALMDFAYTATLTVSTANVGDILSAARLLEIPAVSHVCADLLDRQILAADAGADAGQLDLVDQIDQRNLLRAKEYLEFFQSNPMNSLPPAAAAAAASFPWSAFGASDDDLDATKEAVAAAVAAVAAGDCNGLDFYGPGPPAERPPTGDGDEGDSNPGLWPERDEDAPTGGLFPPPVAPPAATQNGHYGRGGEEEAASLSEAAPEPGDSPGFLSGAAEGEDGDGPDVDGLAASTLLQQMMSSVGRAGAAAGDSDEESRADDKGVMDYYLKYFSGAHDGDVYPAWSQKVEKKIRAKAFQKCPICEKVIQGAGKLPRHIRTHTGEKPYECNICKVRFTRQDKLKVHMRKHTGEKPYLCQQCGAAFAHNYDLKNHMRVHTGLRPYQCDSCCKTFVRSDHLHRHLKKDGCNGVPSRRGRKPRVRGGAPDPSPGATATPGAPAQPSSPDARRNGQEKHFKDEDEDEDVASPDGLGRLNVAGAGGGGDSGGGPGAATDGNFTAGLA

Biological target: T1, 3 × FLAG-TMED3 (Transmembrane emp24 domain-containing protein 3) (UniProt Q9Y3Q3)
T1 sequence: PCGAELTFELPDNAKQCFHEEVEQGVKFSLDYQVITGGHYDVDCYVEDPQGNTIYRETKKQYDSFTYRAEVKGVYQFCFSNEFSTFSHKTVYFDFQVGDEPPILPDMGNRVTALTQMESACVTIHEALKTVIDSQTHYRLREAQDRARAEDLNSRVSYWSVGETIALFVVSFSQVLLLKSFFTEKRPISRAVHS
Experiment: affinity purification with mass spectrometry; Co-IP with FLAG-beads (Sigma) from RIPA lysates of stable NC (empty vector) and OE (3xFLAG-TMED3) U87 MG lines; SDS-PAGE, in-gel trypsin digestion, LC-MS/MS (Q-Exactive); proteins specific to the OE group selected

| Substance | binding |
| --- | --- |
| G3BP1 (from UniProt Q13283 1-466) | binds |
| Zinc finger and BTB domain-containing protein 7A (ZBTB7A) (from UniProt O95365 1-584) | binds |

Results are given in words; binding and its absence hold for the method and conditions named. In cells and extracts the contact can be indirect. Here binding means that the protein was enriched with, or labelled near, the bait; the list need not be complete. Where a sequence is shown, tags or fusion partners need not be part of it.
